# Test results taken from PubChem BioAssay AID493036 (Sanford-Burnham Center for Chemical Genomics, 2011).
# This is one part of the list.
# Assay: NTR1-driven beta-arrestin-GFP spot formation – imaging, U2OS cells, high content, primary screen (AID 493036) (AID 493036)
# Settings: agonist mode, measured here: cell count, cytotoxicity flag, at 20 µM
row,SMILES,cell count [cells]
1,CP(=O)(Nc1ccc2c(c1)OCCO2)Oc1ccccc1 (stereo not drawn),50
2,CC(C)(C)C(=O)NC(Sc1ncccn1)C(Cl)(Cl)Cl (stereo not drawn),62
3,Clc1n[nH]nc1-c1nn[nH][15n]1,76
4,CCOP(=O)(NC(=NC(C)c1ccccc1)NC(C)c1ccccc1)OCC (stereo not drawn),63
5,O=[N+]([O-])c1cc([N+](=O)[O-])c(-n2nnc3ccccc32)c([N+](=O)[O-])c1,30
6,O=P1(Nc2ccccn2)COc2ccccc2OC1,68
7,CCC1=CC2Cc3nc4ccc(Cl)cc4c(N)c3C(C1)C2 (stereo not drawn),49
8,CN(CCCl)Cc1cc(Cl)c(NC2=NCCN2)c(Cl)c1,59
9,CCOP(=O)(Nc1ccc(C)cn1)OCC,59
10,CC(C)/C=N\N=C(\N)N[N+](=O)[O-],45
11,CN(C(=O)Cc1ccc(Cl)c(Cl)c1)[C@@H]1CCCC[C@H]1N1CCCC1,66
12,CC1(CBr)Cn2c(nc3ccccc3c2=O)S1 (stereo not drawn),31
13,Cc1nc2ccc3ccccc3c2s1.O=[N+]([O-])c1cc([N+](=O)[O-])c(O)c([N+](=O)[O-])c1,44
14,O=[As](O)(c1ccccc1Br)c1ccccc1Br,80
15,O=[N+]([O-])c1cc([N+](=O)[O-])c(-c2cnn(-c3ccccc3)c2)c([N+](=O)[O-])c1,50
16,COc1ccccc1CNC(=O)COC(=O)C(O)(c1ccccc1)c1ccccc1,93
17,CCOC(=O)C(CC)C1=NC(C)(C)Cc2ccccc21.O=[N+]([O-])c1cc([N+](=O)[O-])c(O)c([N+](=O)[O-])c1 (stereo not drawn),49
18,O=[N+]([O-])c1cc([N+](=O)[O-])c(Nc2nnnn2CCO)c([N+](=O)[O-])c1,56
19,CN(C)C1(CNC(=O)c2ccc(S(C)(=O)=O)cc2)CCCCC1,67
20,CC1=C2N=C(C=C3N=C(C(C)=C4[N-][C@@](C)([C@@H]5N=C1[C@](C)(CCC(=O)NC[C@@H](C)OP(=O)([O-])O[C@H]1[C@@H](O)[C@@H](n6cnc7cc(C)c(C)cc76)O[C@@H]1CO)[C@H]5CC(N)=O)[C@@](C)(CC(N)=O)[C@@H]4CCC(N)=O)[C@@](C)(CC(N)=O)[C@@H]3CCC(N)=O)C(C)(C)[C@@H]2CCC(N)=O.[C-]#N.[Co+3],65
21,O=C(/C=C/c1ccccc1)OC1CN2CCC1CC2 (stereo not drawn),57
22,CC1CCC(C(C)C)C(OP(=O)(Nc2ccccn2)c2ccccc2)C1 (stereo not drawn),34
23,Cc1ccc(C(=O)OC2CN3CCC2CC3)cc1 (stereo not drawn),87
24,Cc1nn(-c2ccccc2)c2c1P(=O)(N1CCOCC1)N(C)C(c1ccccc1)=N2 (stereo not drawn),58

row,SMILES,cell count [cells]
1,COc1cc(C2NCCC3(OCCO3)C2(C)C)cc(OC)c1OC.O=[N+]([O-])c1cc([N+](=O)[O-])c(O)c([N+](=O)[O-])c1 (stereo not drawn),68
2,CP(=O)(Nc1ccc(SC(F)(F)F)cc1)Oc1ccccc1 (stereo not drawn),53
3,Nc1cccc([As](=O)(O)c2ccccc2)c1,58
4,CCCOc1ccc(NP(C)(=O)Oc2ccc(Cl)cc2)cc1 (stereo not drawn),29
5,O=P1(Nc2ccc(Br)cn2)COc2ccccc2OC1,79
6,NS(=O)(=O)c1cccc(NC(=O)COC(=O)C(O)(c2ccccc2)c2ccccc2)c1,71
7,Cc1ccc(OCC(=O)OC2CN3CCC2CC3)cc1 (stereo not drawn),62
8,O=[As](O)(c1cccs1)c1cccs1,94
9,O=P1(Nc2ncccn2)COc2ccccc2OC1,73
10,COc1ccccc1OP(C)(=O)Nc1c(C)cccc1C (stereo not drawn),78
11,CN1CCCCC1COC(=O)C1(O)c2ccccc2CCc2ccccc21 (stereo not drawn),61
12,Nc1ccccc1[As](=O)(O)c1ccccc1,52
13,O=C(O)COc1ccc([As](=O)(O)O)cc1[N+](=O)[O-],51
14,O=P(Nc1nccs1)(c1ccccc1)c1nc2ccccc2s1 (stereo not drawn),39
15,O=P(Nc1nccs1)(Oc1ccccc1)Oc1ccccc1,94
16,CCOP1(=S)c2c(C)nn(CCC#N)c2N=C(c2ccccc2F)N1C (stereo not drawn),49
17,O=C(O)c1cccc(Nc2c([N+](=O)[O-])cc([N+](=O)[O-])cc2[N+](=O)[O-])c1,51
18,CS(=O)(=O)c1cc([N+](=O)[O-])c2no[n+]([O-])c2c1,46
19,CN(C(=O)Cc1ccccc1)[C@@H]1CC[C@]2(CCCO2)C[C@H]1N1CCCC1,59
20,CCOP1(=S)c2c(C)nn(CCC#N)c2N=C(c2ccc(F)cc2)N1C (stereo not drawn),39
21,N#CCCN(C(=O)COC(=O)C(O)(c1ccccc1)c1ccccc1)c1ccc(F)cc1,54
22,CN(C(=O)Cc1ccc(Cl)c(Cl)c1)[C@H]1CC[C@@]2(CCCO2)C[C@@H]1N1CCCC1,57
23,CC1=NCCc2c1[nH]c1ccccc21.O=[N+]([O-])c1cc([N+](=O)[O-])c(O)c([N+](=O)[O-])c1,41
24,CN(C)C(=O)c1cc([N+](=O)[O-])cc2c1-c1c(cc([N+](=O)[O-])cc1[N+](=O)[O-])C2=O,36

row,SMILES,cell count [cells]
1,O=[N+]([O-])c1ccc2c(c1)nnn2O,57
2,NC(=O)Nc1ccc([As](=O)(O)O)cc1,101
3,Cc1cc(C)cc(OP(C)(=O)Nc2ccc(C)cc2C)c1 (stereo not drawn),45
4,O=[As](O)(c1cccc(O)c1)c1cccc(O)c1,72
5,Cc1cccc(OCC(=O)OC2CN3CCC2CC3)c1 (stereo not drawn),72
6,CCOC(=O)c1ccc(NP(C)(=O)Oc2cc(C)cc(C)c2)cc1 (stereo not drawn),69
7,O=C(OC1CN2CCC1CC2)c1ccc(Cl)cc1 (stereo not drawn),58
8,COc1ccccc1OP(C)(=O)Nc1cccc(Br)c1 (stereo not drawn),73
9,CS(=O)(=O)c1ccc(Cl)c(NC(=O)COC(=O)C(O)(c2ccccc2)c2ccccc2)c1,48
10,COc1cc(C(=O)NCC2(N3CCOCC3)CCCCC2)cc(Cl)c1OC(C)C,45
11,O=[As](O)(O)c1cccnc1,63
12,CCOP(=O)(Nc1cccc2ccccc12)OCC,91
13,Cc1ccc(NCCc2c([N+](=O)[O-])cc([N+](=O)[O-])cc2[N+](=O)[O-])cc1,72
14,CP(=O)(Nc1cccc(Br)c1)Oc1ccccc1 (stereo not drawn),24
15,Cc1cc(C)cc(OP(C)(=O)Nc2ccccn2)c1 (stereo not drawn),60
16,CCCOP(=S)(Nc1nc(N)cc(=O)[nH]1)OCCC,74
17,Cc1ccc(C)c(NP(C)(=O)Oc2ccccc2)c1 (stereo not drawn),61
18,COc1cc(I)ccc1[As](=O)(O)O,66
19,COc1ccc2nc(NP(=O)(c3ccccc3)c3ccccc3)sc2c1,56
20,Cc1c2c(nc3ccccc13)SC(C(Cl)Cl)C2 (stereo not drawn),63
21,Cc1cc(=O)[nH]c(N[N+](=O)[O-])n1,102
22,CCN(CC)CCCOC(=O)C(O)(c1ccccc1)c1ccccc1,41
23,O=C(OC1CN2CCC1CC2)C12CC3CC(CC(C3)C1)C2 (stereo not drawn),91
24,COc1ccc(N/C(=N/P(=O)(N2CCOCC2)N2CCOCC2)N2CCOCC2)cc1,69

row,SMILES,cell count [cells]
1,CC(Cc1ccc(O)cc1)NCC(O)c1cc(O)cc(O)c1 (stereo not drawn),68
2,Cc1cccc(C)c1OP(C)(N)=O (stereo not drawn),58
3,CC(C)(C)c1ccc(OP(C)(=O)Nc2ccc(SC(F)(F)F)cc2)cc1 (stereo not drawn),65
4,Cc1ccc(OP(=O)(Nc2ccc([N+](=O)[O-])cn2)Oc2ccc(C)cc2)cc1,93
5,Cc1ccc2nc3c(c(C)c2c1)CC(C(Cl)Cl)S3 (stereo not drawn),91
6,O=[N+]([O-])c1cc([N+](=O)[O-])c(Nc2cccnc2)c([N+](=O)[O-])c1,74
7,COc1cc(C(=O)NCC2(N3CCOCC3)CCCCC2)ccc1OCC(C)C,78
8,C[As](=O)(O)c1cccc(C(=O)O)c1,81
9,O=[As](O)(c1ccc(O)cc1)c1ccccc1O,50
10,O=[N+]([O-])c1cc([N+](=O)[O-])c(-c2ccn[nH]2)s1,80
11,COc1ccc(OP(C)(=O)Nc2cccc(F)c2)cc1 (stereo not drawn),74
12,CCN(CC)C(=S)SC(NC=O)C(Cl)(Cl)Cl (stereo not drawn),61
13,O=C(OC1CN2CCC1CC2)c1cccc2[nH]cnc12 (stereo not drawn),54
14,COc1ccccc1OP(C)(=O)Nc1cc(Cl)ccc1C (stereo not drawn),66
15,CC(C)NC(=O)NP(=O)(Oc1ccccc1)Oc1ccccc1,39
16,Cc1cc(C)cc(OP(C)(N)=O)c1 (stereo not drawn),72
17,ClCCSc1nnc(-c2cccnc2)o1,83
18,CCOC(=O)c1ccc(NP(C)(=O)Oc2ccccc2)cc1 (stereo not drawn),81
19,Cc1ccc(NP(C)(=O)Oc2ccccc2)c(C)c1 (stereo not drawn),93
20,CC(C)c1ccc(OP(=O)(Nc2ccccn2)Oc2ccccc2F)cc1 (stereo not drawn),50
21,COc1ccccc1OP(C)(=O)Nc1ccc(C)cc1 (stereo not drawn),33
22,Cc1cc(SC(NC(=O)c2ccccc2)C(Cl)(Cl)Cl)nc(C(C)C)n1 (stereo not drawn),55
23,CCCCOc1ccc(C(=O)NCC2(N3CCCCC3)CCCCC2)cc1OC,42
24,CCOC(=O)Nc1ccc([As](=O)(O)O)c(O)c1,70

row,SMILES,cell count [cells]
1,COc1ccccc1OP(C)(=O)Nc1ccccc1 (stereo not drawn),36
2,O=P(Nc1ccccn1)(c1cccc2ccccc12)c1cccc2ccccc12,61
3,Cc1cc(SC(NC=O)C(Cl)(Cl)Cl)ncn1 (stereo not drawn),88
4,CP(=O)(Nc1ccccc1Br)Oc1ccccc1 (stereo not drawn),57
5,CP(=S)(Nn1cnnc1)Oc1ccccc1 (stereo not drawn),51
6,CCOC(=O)Nc1cccc([As](=O)(O)O)c1,80
7,O=C(Nc1ccncc1[N+](=O)[O-])c1ccc([N+](=O)[O-])cc1[N+](=O)[O-],72
8,Cc1cc(C)cc(OP(C)(=O)Nc2ccc(SC(F)(F)F)cc2)c1 (stereo not drawn),65
9,CCc1ccc(OP(C)(=O)N2CCN(c3ccc([N+](=O)[O-])cc3)CC2)cc1 (stereo not drawn),54
10,O=C(COc1ccccc1)OC1CN2CCC1CC2 (stereo not drawn),87
11,CP(=O)(NC(=O)Nc1ccccc1)Oc1ccccc1 (stereo not drawn),42
12,CP(=O)(Oc1ccccc1)OC(c1ccccc1)C(F)(F)F (stereo not drawn),66
13,Cc1cccc(C)c1OP(C)(=O)Nc1ccc(SC(F)(F)F)cc1 (stereo not drawn),30
14,CP(=O)(Nc1ccc(SC(F)(F)F)cc1)Oc1ccc(Cl)cc1 (stereo not drawn),50
15,COP1(=S)c2c(C)nn(CCC#N)c2N=C(c2ccc(F)cc2)N1C (stereo not drawn),55
16,CCC(C)N(CC(C)C)C(=S)SC(NC(C)=O)C(Cl)(Cl)Cl (stereo not drawn),87
17,CP(=O)(Nc1ccccn1)Oc1ccc(Cl)cc1 (stereo not drawn),49
18,O=C(OC1CN2CCC1CC2)c1cccc([N+](=O)[O-])c1 (stereo not drawn),45
19,CCOP(C)(=S)SCC(=O)NC(C)C(=O)O (stereo not drawn),44
20,CCOC(=O)c1ccc(NC(=O)C(C)(CCl)SC)cc1 (stereo not drawn),64
21,CCOC(=O)c1ccc(NP(C)(=O)Oc2ccc(OC)cc2)cc1 (stereo not drawn),63
22,O=[N+]([O-])c1cc([N+](=O)[O-])c(O)c([N+](=O)[O-])c1.c1ccc(Oc2ccncc2)cc1,59
